Percent effect of library compounds

Chains of the proteins cited; added tags and fusions are not shown. Residues count along the entry.
UniProt Q4DA54, 1-478: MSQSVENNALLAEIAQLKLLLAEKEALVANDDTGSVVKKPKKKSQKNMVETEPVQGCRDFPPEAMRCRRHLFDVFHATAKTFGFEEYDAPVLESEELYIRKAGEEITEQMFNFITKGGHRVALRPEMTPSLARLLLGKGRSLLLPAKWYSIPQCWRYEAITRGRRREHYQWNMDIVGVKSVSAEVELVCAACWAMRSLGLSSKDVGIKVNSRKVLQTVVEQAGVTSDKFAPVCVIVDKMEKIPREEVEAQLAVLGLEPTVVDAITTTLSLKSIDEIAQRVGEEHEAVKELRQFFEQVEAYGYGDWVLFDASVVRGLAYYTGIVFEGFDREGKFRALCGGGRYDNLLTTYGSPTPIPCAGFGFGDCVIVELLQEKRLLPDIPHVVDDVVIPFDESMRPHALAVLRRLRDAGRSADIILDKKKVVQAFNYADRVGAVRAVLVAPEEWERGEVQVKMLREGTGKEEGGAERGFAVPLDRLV
UniProt A4I591, 1-473: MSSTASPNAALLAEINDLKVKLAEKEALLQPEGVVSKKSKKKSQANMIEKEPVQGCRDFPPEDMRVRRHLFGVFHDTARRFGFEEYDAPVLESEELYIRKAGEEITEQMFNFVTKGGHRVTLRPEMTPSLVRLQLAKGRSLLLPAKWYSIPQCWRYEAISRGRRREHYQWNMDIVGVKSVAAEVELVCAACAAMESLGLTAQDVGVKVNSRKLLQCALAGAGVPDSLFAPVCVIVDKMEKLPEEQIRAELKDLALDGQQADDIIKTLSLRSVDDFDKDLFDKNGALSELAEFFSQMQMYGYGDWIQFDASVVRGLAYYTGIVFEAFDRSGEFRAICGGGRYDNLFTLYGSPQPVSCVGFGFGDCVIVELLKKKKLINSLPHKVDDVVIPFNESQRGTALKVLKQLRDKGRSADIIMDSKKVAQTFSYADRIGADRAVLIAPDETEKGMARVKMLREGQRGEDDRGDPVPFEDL
UniProt Q8IDJ8, 1-583: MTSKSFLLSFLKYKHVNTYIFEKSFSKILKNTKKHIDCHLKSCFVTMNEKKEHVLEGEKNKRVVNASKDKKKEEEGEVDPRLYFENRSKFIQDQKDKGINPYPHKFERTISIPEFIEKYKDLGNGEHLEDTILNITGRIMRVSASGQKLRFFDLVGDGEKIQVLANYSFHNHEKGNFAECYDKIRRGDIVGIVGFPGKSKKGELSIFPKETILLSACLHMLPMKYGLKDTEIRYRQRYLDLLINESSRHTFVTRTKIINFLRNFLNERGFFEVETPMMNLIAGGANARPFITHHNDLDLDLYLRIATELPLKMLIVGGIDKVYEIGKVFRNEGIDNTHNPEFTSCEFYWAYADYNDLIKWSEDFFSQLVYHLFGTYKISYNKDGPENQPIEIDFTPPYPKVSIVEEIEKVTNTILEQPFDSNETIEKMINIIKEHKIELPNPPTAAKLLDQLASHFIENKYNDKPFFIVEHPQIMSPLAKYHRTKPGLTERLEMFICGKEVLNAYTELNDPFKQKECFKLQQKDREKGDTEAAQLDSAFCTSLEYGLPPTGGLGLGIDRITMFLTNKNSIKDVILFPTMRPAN
UniProt P9WNZ1, whole entry: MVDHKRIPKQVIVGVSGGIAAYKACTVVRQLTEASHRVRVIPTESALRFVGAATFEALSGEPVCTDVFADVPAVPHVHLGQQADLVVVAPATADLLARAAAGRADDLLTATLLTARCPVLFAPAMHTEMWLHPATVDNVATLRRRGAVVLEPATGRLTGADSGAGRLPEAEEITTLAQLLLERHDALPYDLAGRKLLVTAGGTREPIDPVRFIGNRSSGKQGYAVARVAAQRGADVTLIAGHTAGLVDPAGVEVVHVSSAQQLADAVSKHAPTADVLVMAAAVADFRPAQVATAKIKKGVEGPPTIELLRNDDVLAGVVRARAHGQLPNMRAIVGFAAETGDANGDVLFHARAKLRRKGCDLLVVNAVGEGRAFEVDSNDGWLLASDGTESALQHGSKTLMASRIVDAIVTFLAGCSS

TcHisRS: 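Histidine-tRNA ligase, Trypanosoma cruzi CL Brener (UniProt Q4DA54). Enzyme assay of histidyl-tRNA synthetase; the read-out is not stated. Tested at 30 µM. Direction is inferred from retests: higher values go with stronger inhibition. Of about 69,000 compounds tested this way, about 31 (0.045%) reached 50% or more in at least one test.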
LiHisRS: 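Enzyme assay of histidyl-tRNA synthetase; the read-out is not stated. Target: Histidine-tRNA ligase, Leishmania infantum (UniProt A4I591). Tested at 30 µM. Direction is inferred from retests: higher values go with stronger inhibition. The assay is labelled LdHisRS but filed under L. infantum. About 69,000 compounds were tested under these conditions; 0.6% (about 410) showed 50% or more at least once.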
Toxoplasma: 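Assay of Toxoplasma gondii numbers, read through their beta-galactosidase reporter with a colour substrate. Compounds at 10 µM. Higher reads as fewer parasites (inferred from which compounds were picked for retests). About 67,000 compounds were tested under these conditions; 0.38% (about 260) showed 50% or more at least once.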
PfKRS1: 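Lysine-tRNA ligase, Plasmodium falciparum 3D7 (UniProt Q8IDJ8). Enzyme assay of the cytosolic lysyl-tRNA synthetase in 384-well plates, read by luminescence. Tested at 30 µM. Higher reads as stronger inhibition, judged from the few compounds that gave an IC50. About 69,000 compounds were tested under these conditions; 0.071% (about 49) showed 50% or more at least once.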
CoaBC: 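Enzyme assay of CoaBC with a phosphate dye (Biomol Green) read at 650 nm. Target: Coenzyme A biosynthesis protein CoaBC, Mycobacterium tuberculosis (UniProt P9WNZ1). Tested at 30 µM. Higher reads as stronger inhibition, judged from the few compounds that gave an IC50. Most strong results did not repeat in a second test. About 67,000 compounds were tested under these conditions; 0.06% (about 40) showed 50% or more at least once.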

The filed quantity is “Percent Effect” (%).
The record does not define 0% and 100%; most values in the screen are far below 50% and negative numbers occur (in some assays of this library far below -100).
The compounds are a random part of those screened.
Two or more numbers in one place are separate tests of the same structure; such repeats can differ widely.
A dash means the value is not listed here; it may have been measured.

| structure | TcHisRS | LiHisRS | Toxoplasma | PfKRS1 | CoaBC |
|---|---|---|---|---|---|
| `CN(C)C(=O)N1CC2(CCNCC2)c2cc(Cl)ccc21.Cl` | - | - | -1.969 | - | - |
| `O=C1CCC2(CCN(Cc3cscn3)CC2)CN1CCCO` | 3.867 | 21.69 | -3.617 | 2.05 | 8.252 |
| `CC1c2ncc(Cn3cncn3)n2CCN1CC1CCOCC1` (stereo not shown) | 3.81 | 4.167 | - | 0.6133 | 4.069 |
| `Cc1cccc(CN2C[C@@H]3CN(C(=O)c4ccco4)C[C@@H]3C2=O)c1` | 5.882 | 28.57 | - | 3.945 | 6.189 |
| `Cn1cc(-c2nc(CN3CCN(c4nccs4)CC3)cs2)cn1` | 9.467 | 21.43 | -13.84 | -1.015 | 3.676 |
| `CCC1COCCN1C(=O)NCc1nccn1CC(C)C` (stereo not shown) | 1.657 | 1.036 | 4.475 | 2.728 | 0.3822 |
| `Cc1nc(C)n(CC2CN(CCOc3ccccc3F)CCO2)n1` (stereo not shown) | -1.887 | 12.16 | 7.773 | -1.759 | 1.434 |
| `COCCN1CCOCC2(CCN(c3cnccn3)CC2)C1` | -4.124 | 4 | - | -3.833 | 0.2463 |
| `OC1(Cn2ccc3ccncc32)CCN(Cc2ccccn2)CC1` | 3.784 | 11.11 | 1.473 | 1.562 | -1.944 |
| `O=C(O)C(F)(F)F.[H][C@@]12CCN(CCOCc3ccccc3)[C@]1([H])CC[C@@H](C(=O)N1CCCC1)O2` | - | - | -26.57 | - | - |
| `Cc1cccc(CNC(=O)C2CCC(=O)N(Cc3ccccc3F)C2)n1` (stereo not shown) | -2.899 | 14.17 | -18.13 | 8.926 | -2.112 |
| `Cc1noc([C@@H]2CCO[C@@H]3CCN(C(=O)Cc4ccsc4)C[C@@H]32)n1` | 4.598 | -7.895 | - | -0.04563 | 0.2037 |
| `CN(Cc1ccc(F)cc1)C(=O)NCc1nnc2n1CCC2` | 0 | 8.929 | -4.834 | 0.1294 | 22.16 & 40.35 |
| `CCc1nc(C)ncc1C(=O)N1CC(=O)N(C)c2ccccc21` | 8.671 | 23.4 | -8.812 | 5.005 | 2.73 |
| `O=C1CSC(c2cccs2)c2cnn(C3CCCC3)c2N1` (stereo not shown) | 10.38 | 9.709 | 1.674 | 4.91 | 5.518 |
| `CN1CC[C@]2(CN(S(C)(=O)=O)C[C@H]2c2ccccc2)C1=O` | 8.466 | 8.182 | -9.518 | 0.01607 | -2.222 |
| `CCN(CC)C(=O)CCc1c(C)nc2cc(O)nn2c1C` | 2.174 | 22.86 | 0.4525 | 8.091 | 3.644 |
| `CC(C)NC(=O)c1ccc2nnc(C3CCN(S(C)(=O)=O)C3)n2c1` (stereo not shown) | 2.4 | -0.885 | 3.623 | -1.59 | 5.308 |
| `NC(=O)c1cccc2nc([C@H]3CCN(Cc4ccccn4)C3)[nH]c12` | 0.4975 | 21.62 | 0.9668 | 0.6192 | 18.27 |
| `CN(Cc1ccc(N(C)C)cc1)C(=O)CSc1ccc(Br)cc1` | 13.33 | 18.92 | 5.341 | 9.79 | -2.724 |
| `CC(NC(=O)NCCn1ccnc1)c1ccc2c(c1)CCC(=O)N2` (stereo not shown) | 0.5714 | 11.86 | -9.05 | -1.092 | 4.724 |
| `CCN(CC)S(=O)(=O)N1CCCC1c1nnc2n1CCN(C)CC2` (stereo not shown) | 3.714 | 12.08 | -2.052 | 1.128 | -3.196 |
| `COc1c(Br)c(C(=O)NC2CC2)nn1C` | 11.18 | 25 | -13.98 | 8.167 | 0.8861 |
| `O=C1CN(c2ccc(CNc3cncc(-n4cccn4)n3)cc2)CCN1` | 11.73 | 18.42 | -11.14 | 1.224 | 6.048 |
| `CN1CCN(c2ncc(-c3cnccn3)c([C@H]3CCCO3)n2)CC1` | -1.498 | -6 | 4.964 | -0.05324 | 0.3717 |
| `CCn1cc(NC(=O)NCC(O)CN2CCc3ccccc3C2)cn1` (stereo not shown) | -0.3774 | 8 | -1.122 | 1.56 | 6.154 |
| `COCc1ncc(CN2CC[C@@H](NC(=O)c3cccnc3)[C@H](O)C2)cn1` | -3.125 | 23.46 | -1.098 | 2.733 | 6.122 |
| `Cc1ccc(CN(Cc2ccncc2)C2CC(C)(C)NC(C)(C)C2)o1.O=C(O)CC(O)(CC(=O)O)C(=O)O` | - | - | 9.497 | - | - |
| `O=C(CCCc1nc(C2CC2)no1)N1CCCC(c2ccn[nH]2)C1` (stereo not shown) | 2.564 | 3.175 | 1.644 | 4.774 | -4.224 |
| `O=C(O)C(F)(F)F.[H][C@@]12CCN(c3ccncn3)C[C@@]1([H])O[C@@H](C(=O)NCCOC)C2` | - | - | -3.432 | - | - |
| `CC(CO)CN(Cc1ccccc1)Cc1cnc2ccccc2n1` (stereo not shown) | 4.124 | 3.297 | 5.871 | 0.7736 | -1.651 |
| `COc1ccccc1CN1C(=O)O[C@@H]2CN(c3nc(C)cc(C)n3)C[C@@H]21` | 4.545 | 8.333 | - | 2.581 | 10.92 |
| `Cc1cnn(CC2CCCN2C(=O)Cc2n[nH]c3ccccc23)c1` (stereo not shown) | 0 | -10.11 | - | 1.742 | 3.599 |
| `CN1CCN(c2ncnc3c2CCN(S(=O)(=O)C2CC2)CC3)CC1.O=C(O)C(F)(F)F` | - | - | 19.49 | - | - |
| `CCc1ccsc1C(=O)N1CCN(CCN2C(=O)CCC2=O)CC1` | 1.994 | 10.26 | -1.235 | 2.76 | -4.558 |
| `CCCc1nnc(NC2CCN(C3CCCC3)CC2)o1` | 7.895 | 17.5 | 0.7991 | 1.814 | - |
| `CCc1nc(C2CCCN2Cc2nc(C(C)(C)C)no2)no1` (stereo not shown) | 2.242 | -1.176 | -19.11 | -5.17 | 2.03 |
| `Cc1nc(C)n(C2CCCN(C(=O)COc3ccccc3)C2)n1` (stereo not shown) | 1.149 | 5.217 | 1.771 | 0.6265 | 2.71 |
| `CCN1C[C@@H](C(=O)O)[C@H](c2cccc(OC)c2)C1` | -5.202 | 20 | 1.978 | 6.463 | 0.8264 |
| `CN1Cc2[nH]nc(COCC3CC3)c2C1` | 3.797 | 15.52 | - | 12.47 | - |
| `CCCc1noc(C2CC(=O)N(C(C)(C)C)C2)n1` (stereo not shown) | -1.212 | 15.58 | -4.287 | 2.888 | 3.831 |
| `CCC1(CC)C(=O)NC(=O)N/C1=N/c1cccc(OC)c1` | -6.433 | -21.05 | -18.48 | -2.885 | -1.01 |
| `CCSc1ncc(-c2nccn2CCN(C)C)cn1` | -1.058 | 9.091 | 2.605 | -2.022 | -10.06 |
| `CCc1nnc(CN(C)c2cc(C)nc3c(C)c(C)nn23)o1` | -1.98 | 23.29 | -2.592 | 0.8487 | 7.341 |
| `O=C(CN1CC(c2nc(-c3ccco3)no2)C1)NCC1CCCO1` (stereo not shown) | -1.031 | 15.65 | - | -3.316 | 9.937 |
| `O=C(O)c1cc(C2CC2)nc2c(Cl)cnn12` | 0.4425 | 6.195 | 4.637 | 0.4322 | -3.972 |
| `O=C(CCc1cc(O)no1)N1CCCC(COc2ccccc2F)C1` (stereo not shown) | 0.9901 | -56.16 | -0.5425 | 6.89 | 5.383 |
| `Cn1cc(CN2C[C@@H](F)[C@@H](OCc3nc4cnccc4[nH]3)C2)cn1` | -4.478 | 13.51 | -3.099 | -1.214 | 2.161 |
| `[H][C@@]12CCCN1C[C@H](CCSC)N(Cc1cn(C)nc1C)C2` | - | - | -15.61 | - | - |
| `OC1(CN2CCCC2)CCCN(c2ncnc3[nH]cnc23)C1` (stereo not shown) | 5.202 | 9.333 | 0.6233 | 6.417 | 6.198 |
| `Cc1ccc(CCNC(=O)Nc2cc(C(F)(F)F)c[nH]c2=O)o1` | 4.956 | 11.01 | -21.23 | 1.027 | 12.33 |
| `CNS(=O)(=O)c1ccc(C(=O)N2CCCCC2c2ccc(C)cc2)o1` (stereo not shown) | 6.358 | 16.96 | 10.22 | 0.4525 | 2.427 |
| `CNC(=O)[C@@H]1C[C@@H](N)CN1c1nc(N2CCCC2)nc(C)c1C` | 5.806 | 9.091 | -4.003 | 4.498 | 0.2415 |
| `COc1cc2cc(C)c(SCCN3CCCCC3)nc2cc1OC.Cl` | - | - | 20.74 | - | - |
| `O=C(CCOCC(F)(F)F)N1CCCC(n2ccnc2)C1` (stereo not shown) | 0.8547 | 0 | 5.376 | 0 | 3.485 |
| `c1ccc(C[C@H]2CN(C3CCOCC3)CC[C@H]2OCC2CC2)cc1` | 0 | 13.59 | - | -0.826 | 4.071 |
| `Cc1cnc(CNC(=O)CC2CCc3ccccc32)cn1` (stereo not shown) | 3.797 | 12.5 | -0.9702 | 4.466 | 2.644 |
| `COCCSCC(=O)NCc1ccc(N(C)C)cc1` | -2.128 | 24.29 | -5.368 | 0.6083 | 3.484 |

For reference, 8 entries once more:

structure,TcHisRS,LiHisRS,Toxoplasma,PfKRS1,CoaBC
NC(=O)c1cccc2nc([C@H]3CCN(Cc4ccccn4)C3)[nH]c12,0.4975,21.62,0.9668,0.6192,18.27
CCN(CC)C(=O)CCc1c(C)nc2cc(O)nn2c1C,2.174,22.86,0.4525,8.091,3.644
Cc1nc(C)n(CC2CN(CCOc3ccccc3F)CCO2)n1 (stereo not shown),-1.887,12.16,7.773,-1.759,1.434
O=C1CSC(c2cccs2)c2cnn(C3CCCC3)c2N1 (stereo not shown),10.38,9.709,1.674,4.91,5.518
O=C(O)C(F)(F)F.[H][C@@]12CCN(c3ccncn3)C[C@@]1([H])O[C@@H](C(=O)NCCOC)C2,-,-,-3.432,-,-
[H][C@@]12CCCN1C[C@H](CCSC)N(Cc1cn(C)nc1C)C2,-,-,-15.61,-,-
CCc1nc(C)ncc1C(=O)N1CC(=O)N(C)c2ccccc21,8.671,23.4,-8.812,5.005,2.73
CN(Cc1ccc(N(C)C)cc1)C(=O)CSc1ccc(Br)cc1,13.33,18.92,5.341,9.79,-2.724

From ChEMBL document CHEMBL3988442, “University of Dundee, Small-Polar-MMV Screening Library” (2021).